Source: the supplement of paper PMC3334620
The full ranking holds about 33,000 sequences; the median of “E-score (-0.5 to 0.5)” is about -0.0059, and the highest 2% start at about 0.26. The list shows a part of the results.

The sequences below were run against T1, Cin5 (UniProt P40917) (assay: PBM E-score (8-mer binding enrichment) (E-score (-0.5 to 0.5)); higher = stronger / more preferred TF binding). Conditions: protein concentration: 100 nM; construct: GST-full length.
T1 sequence: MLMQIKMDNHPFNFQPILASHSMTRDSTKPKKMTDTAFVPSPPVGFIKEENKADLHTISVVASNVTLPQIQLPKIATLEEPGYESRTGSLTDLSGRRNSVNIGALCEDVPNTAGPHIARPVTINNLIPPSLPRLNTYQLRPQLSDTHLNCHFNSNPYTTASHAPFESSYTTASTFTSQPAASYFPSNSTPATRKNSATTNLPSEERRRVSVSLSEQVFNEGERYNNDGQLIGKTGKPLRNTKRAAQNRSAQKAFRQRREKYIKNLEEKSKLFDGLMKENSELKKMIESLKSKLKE
In short: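 Detection of bound protein used fluorescent anti-GST, with scans normalised by masliner. The proteins were GST-tagged yeast transcription factors applied at about 100-200 nM to universal all-10-mer Agilent arrays made double-stranded by primer extension. Each ungapped eight-base word, pooled with its reverse complement, was scored with an E-score from the Universal PBM Analysis Suite.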

Sequence	PBM E-score
CTTACGCC	0.0932
CCAGTTCG	0.0645
AGGAATCC	-0.169
GCTGTTAA	-0.00899
CAGTGACG	-0.0298
ACGCGTTG	0.0265
CCGTCCTA	-0.167
ACAGCTAT	-0.0274
CATCGACC	-0.0202
GAATGATA	0.291
AAAACTCA	0.152
ACGGCACT	-0.0619
CGTGTGAG	-0.065
GCATTTTA	0.158
TATGAAGA	0.153
AAGCAATT	0.142
AGATGTGA	0.229
CAAGCAGG	-0.308
ACGGCCAA	0.0141
AGCAACTC	-0.0584
CGTCTCGC	-0.0731
AATCTGAA	0.103
GCATCAGC	0.0115
TAGCATCA	0.236
TCCCAAAA	0.0139

Sequence	PBM E-score
AATCTAGC	-0.0585
CTCCGTTC	-0.048
CACAGACC	0.115
CACATAGA	-0.0472
GGCGTGGA	-0.0633
ACAGATCA	0.202
CACTCTCA	-0.0106
GAAATTAA	0.273
CCTTACGA	-0.114
ATCTCTAA	0.118
TCATAACA	0.195
ATTTATCC	0.2
AGAACCCG	0.0494
TAAAATTA	0.178
AATAACGA	0.14
CGATACCC	-0.03
AGTGTTCG	0.0791
AAGGTCCT	-0.199
AGACAGGC	-0.133
ATACACGA	0.0841
CATACATA	0.213
AATCGAGT	0.104
CGACCACC	-0.0945
ATAATAGA	0.221
GATGTTTA	0.141

Sequence	PBM E-score
CCACCACC	-0.16
AATTGAAT	0.0567
CGTGCACG	-0.00234
CTACCACC	-0.17
GTGACCCA	-0.126
ATCCGCGG	0.271
CGGTAAAG	0.0679
ACGATCTA	-0.185
CTGGACCC	-0.295
GATCGCAC	-0.0389
ACTCAAGC	-0.0189
ACTGGTCG	-0.18
GACAGCAA	0.0467
ATGTTAAA	0.256
CATTGCCC	-0.117
ACGGATGG	-0.018
GCCTCATA	0.00338
ACGAGGGC	-0.0942
AGTAATCC	0.243
AGGGCGAG	-0.13
GAAGAGTC	-0.137
CCCTGATA	-0.0991
CTGATTCA	0.0937
CAGTTGGA	0.0453
GACTATCA	-0.0598

Sequence	PBM E-score
ATCAAAAC	0.133
CGTCGATA	-0.00286
AAAGGCTC	-0.285
ACCTCTTA	0.231
TCTCACAA	0.177
AATGAGCT	0.0653
ATCGCAAC	0.0824
AATATGCA	0.0588
ATCAGACC	0.00535
GGAAGTCC	-0.129
GATGTAGC	-0.138
ACCGTGAG	-0.226
CTAGATCA	-0.0152
TTAAGGAA	0.0901
ACACGAAG	0.208
AGGAAAGG	-0.353
CGTTCAAC	0.0923
CTTGCTGC	-0.16
GATGCAAC	-0.0342
AACTCGAA	0.0318
AGCTCATC	0.0701
GACGGGCA	-0.123
CGCAGTAC	-0.181
TCGCCTAA	-0.0803
CCTAACAG	-0.0185

Sequence	PBM E-score
ACGTTATG	0.239
GCTTATTA	0.251
CATGGCTA	0.037
GGACAGAA	0.079
GATTCCGA	0.159
AAACTAGT	0.082
AAAGATTA	0.249
CGCTCTTC	-0.198
ATGAGCGC	-0.0805
ATACGAGG	-0.0715
AGCCGCGA	-0.0527
GGACGATA	0.0335
CGTCGCGC	-0.0413
CATCCCGC	0.041
ACTCGCCG	0.0846
GTACACCA	-0.0324
CAGACTCA	-0.0657
GACCCGCC	0.0639
AGCTGCCC	0.117
AGCGTAGA	-0.129
AATCAGGA	0.0872
ATAAGTGA	0.0866
GCCAATAC	0.0421
ATCACATG	0.00787
ACAACGGA	0.134

Sequence	PBM E-score
CCCCTCGG	-0.33
AAGCTCAC	-0.00045
AGATGGCT	-0.0252
ACCACGAC	-0.023
GCTTGCGA	0.00349
ATTCATTG	0.116
CTGATCCC	-0.041
CTACATAG	0.0617
AAGAGCAT	0.0355
ACATGGTG	0.0908
ACGGGACC	-0.254
CTCGAGGA	0.0794
ATGGCAAG	0.115
AGTATCAG	-0.0204
CAAAATGG	0.119
CCCGAACG	-0.163
AGCGCTTC	0.104
CACTTGGG	-0.0336
ACCCGGGT	-0.0281
TAACGGAA	0.322
CCCCCTTC	-0.46
CGTTACGC	-0.0798
CAACATTC	-0.106
TGCCACAA	0.0555
CTAAAAGC	-0.101

Taken from the results shown for reference:
Sequence	PBM E-score
GATGTAGC	-0.138
ACCGTGAG	-0.226
CTAGATCA	-0.0152
TTAAGGAA	0.0901

The results go on.

Sequence	PBM E-score
AAATGTTC	0.0482
AACCCATG	0.13
CTTTGAGA	-0.0159
ATTCCGCA	-0.0146
CATGTTTA	0.163
CCCAGGCG	-0.148
CTCTTCTC	-0.204
ACTTGCTC	-0.0492
CATTCACA	0.0649
ACCATAAT	0.25
ACCGACGT	0.0399
GCACGTTA	-0.0276
ATCTACTG	0.084
CATGTGGG	0.0561
CACAGTGA	0.0516
AACGGTTC	-0.182
AAAGACAA	0.256
ACCTGTTC	0.0381
CCGGCAAA	-0.0177
AGCACAAT	0.105
ACACCATC	0.0669
GTAATAAA	0.2

Some of the entries so far, in CSV form.
Sequence,PBM E-score
CGTGTGAG,-0.065
AATAACGA,0.14
GCCTCATA,0.00338
GACTATCA,-0.0598
CCCCTCGG,-0.33
CTGATCCC,-0.041
CATGTTTA,0.163
